# According to article doi:10.1101/2023.08.16.553618, “Structure of C. elegans TMC-2 complex suggests roles of lipid-mediated subunit contacts in mechanosensory transduction” (bioRxiv, 2023):
# T1: C. elegans TMC-2 (transmembrane channel-like protein 2), native, with C-terminal mVenus-3C-3xFLAG (C. elegans) (UniProt Q11069)
# T1 sequence (chain, N-glycans at N225 and N748 (density features)): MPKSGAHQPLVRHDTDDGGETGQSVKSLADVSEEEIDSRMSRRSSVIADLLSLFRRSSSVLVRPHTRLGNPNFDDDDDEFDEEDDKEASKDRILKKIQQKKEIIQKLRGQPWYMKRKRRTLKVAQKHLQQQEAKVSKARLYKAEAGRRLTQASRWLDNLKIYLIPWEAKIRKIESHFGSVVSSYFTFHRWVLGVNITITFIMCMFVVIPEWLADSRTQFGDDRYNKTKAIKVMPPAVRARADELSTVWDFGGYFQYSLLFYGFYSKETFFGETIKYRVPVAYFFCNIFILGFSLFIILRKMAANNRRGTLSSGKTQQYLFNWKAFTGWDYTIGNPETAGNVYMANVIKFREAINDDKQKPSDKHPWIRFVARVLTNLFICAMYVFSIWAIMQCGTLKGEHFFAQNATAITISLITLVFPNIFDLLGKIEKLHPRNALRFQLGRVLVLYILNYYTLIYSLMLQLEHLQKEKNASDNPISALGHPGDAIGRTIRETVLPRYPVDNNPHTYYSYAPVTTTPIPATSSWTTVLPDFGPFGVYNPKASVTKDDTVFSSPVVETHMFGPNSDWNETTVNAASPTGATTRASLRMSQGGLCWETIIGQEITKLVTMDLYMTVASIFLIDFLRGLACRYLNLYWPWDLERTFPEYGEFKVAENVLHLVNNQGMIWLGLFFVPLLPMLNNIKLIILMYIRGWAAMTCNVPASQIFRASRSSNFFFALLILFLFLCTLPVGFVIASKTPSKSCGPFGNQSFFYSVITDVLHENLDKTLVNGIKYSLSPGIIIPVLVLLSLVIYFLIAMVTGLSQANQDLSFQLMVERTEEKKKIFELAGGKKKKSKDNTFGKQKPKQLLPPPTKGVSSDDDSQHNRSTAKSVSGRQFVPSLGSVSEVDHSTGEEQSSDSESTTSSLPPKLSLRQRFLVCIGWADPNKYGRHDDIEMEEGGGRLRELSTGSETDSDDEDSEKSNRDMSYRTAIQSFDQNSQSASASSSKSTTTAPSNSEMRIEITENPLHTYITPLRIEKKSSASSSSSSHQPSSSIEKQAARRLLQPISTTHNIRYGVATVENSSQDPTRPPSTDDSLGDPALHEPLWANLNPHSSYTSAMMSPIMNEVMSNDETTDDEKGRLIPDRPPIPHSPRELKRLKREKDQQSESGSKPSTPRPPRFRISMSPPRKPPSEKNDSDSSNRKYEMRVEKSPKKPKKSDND
# What was measured:
# [1] = target: T1, C. elegans TMC-2 (transmembrane channel-like protein 2), native, with C-terminal mVenus-3C-3xFLAG (C. elegans); assay: affinity purification with mass spectrometry + cryo-EM structure; native TMC-2 complex isolated from tmc2::mVenus worms by anti-FLAG affinity and SEC; proteins sought in the mass spectrometry data and in the cryo-EM map
# [2] = target: T1, C. elegans TMC-2 (transmembrane channel-like protein 2), native, with C-terminal mVenus-3C-3xFLAG (C. elegans); assay: as above; remark: listed apart in the source
Molecule,binding [1],binding [2]
"arrestin (ARRD-6), C. elegans",no binding,
worm ortholog of protocadherin-15 (PCDH15) (C. elegans),no binding,
"C. elegans TMC-1 (transmembrane channel-like protein 1) (protein, UniProt D3KZG3 1-1285) MQEAARRASLRKEHTPTNEKFGDLSKQDSLGERASSKLTLDDELYDILYAFGETDAFINKGDKQRETDEDGNPLTRQALLERIRQKKEVIGKLRCQAWSMTRKRRTLKLAQKYLEQHESKVSRSHLYMEEMRKRARLMKRSFSNFKTYLIPWESKIKRIESHFGSVVSSYFTFLRWIVFVNIMITLIALVFVVLPETLADSVANEGRFNRTKTRKQIPANERVHADELAVVWHYDGYLRYSPLFYGYYSDDPFLGNKIKYALPLAYFMVTLTIFAYSFFAILRKMAANARMSKLSGSKAEQYIFNWKLFTGWDYTIGNSETASNTVMAVVIKLRESIADIKKDAHGKFRLLQFSLRVFANIIICAMLGFSIYCIIFAVQKSQVQDDGNLFTKNQVPSVVSTITHVFPMIFDLIGKMENYHPRTALRAHLGRVLILYTVNYITLIFALFEKMTALRDRVNSTSTSSSHRTKRQQGGWNPNMQRPPPYASRAEVRQMSDFLAANTRRFQTVSQRTTRSVTTPFTVAPQFGPFNVNNPNAVFHNGTHSTSFESQILGPKALPIFTPPPRKYPGFTPGNVGQQFGGPDFPRNQVYTKSTPLPRVRTKPPWVYTTTHPPLVQNRAMTTTMSKSAKKGNSKNLDDDILLSNETIQMSEAALRRNHDGHNNDICWETIIGQEIVKLVTMDLIFTILSILVIDLFRGLWIKYCSSWWCWDIETTFPEYGEFKVAENVLHIINNQGMIWLGLFFAPLLPAINNIKLIILMYIRGWAVMTCNVPAREIFRASRSSNFYLGILLIWLLLCTLPVGFVIASMSPSRSCGPFARYQHFYTVVTREIEKRVDQTVLSYIRHIASPGVVIPIILFLILIIYFLFSLVRGLREANTDLQAQLVHERTEEKKKIFELAGGKKNKFEKDRDKKRSNDYIPLIEQRRREPWRQYHEMEADHALASDSSEESDINEDEDDERQPLTAYPLRAIETPPETLQVTAFHPSLGSLIENREMEDEESASGDQLPMIHKSVSFQGPSHMQMRQSISTESCSQISRSAIQVATPEEIRALLRPYLEAKYGIPYQHGIKSFPIDVHTPPNNTPSRRSSKYNSFVSLYEHTRDDHKNFVASTIKETDEDPGKSDKKQTSSKDVAPDFMPWPSADEARALREKMKSKTPLMLTKTTVEEKPKGGKSSESEFRPPVPIHRKYNIQTTEEENEEEETDSAPESSKKRFRISVSPTKTIAPASASRAQHKIVSQASSSSSIPHGRQPDPNKKASLVLPPLRAPRVQFDEDDSPRQID",,no binding

# Now from value to molecule:
binding [1],binding [2],Molecule
no binding,,"UNC-44, the worm ortholog of mammalian ankyrin (C. elegans)"
no binding,,worm ortholog of lipoma HMGIC fusion partner-like 5 (LHFPL5) (C. elegans)

# Like-named read-outs stand apart in the source and are kept apart here. No constants are given. Whether binding was seen depends on the method and setting. Binding seen in cells or lysates may run through a third protein. These calls come from enrichment with a bait or labelling near it, and not all partners need be listed. A no says only that the protein was not detected with the bait. Where a sequence is shown, tags or fusion partners need not be part of it.
